Test results: paper PMC10204870, “Analysis of aptamer-target binding and molecular mechanisms by thermofluorimetric analysis and molecular dynamics simulation”
Weaker means in comparison with the reference protein, sequence or condition of that experiment. Construct, isoform or probe ends are uncertain for at least one entry.

By UniProt entry, the sequences of proteins in these tests, tags left out. Residues count along the entry.
UniProt P02771, 19-609: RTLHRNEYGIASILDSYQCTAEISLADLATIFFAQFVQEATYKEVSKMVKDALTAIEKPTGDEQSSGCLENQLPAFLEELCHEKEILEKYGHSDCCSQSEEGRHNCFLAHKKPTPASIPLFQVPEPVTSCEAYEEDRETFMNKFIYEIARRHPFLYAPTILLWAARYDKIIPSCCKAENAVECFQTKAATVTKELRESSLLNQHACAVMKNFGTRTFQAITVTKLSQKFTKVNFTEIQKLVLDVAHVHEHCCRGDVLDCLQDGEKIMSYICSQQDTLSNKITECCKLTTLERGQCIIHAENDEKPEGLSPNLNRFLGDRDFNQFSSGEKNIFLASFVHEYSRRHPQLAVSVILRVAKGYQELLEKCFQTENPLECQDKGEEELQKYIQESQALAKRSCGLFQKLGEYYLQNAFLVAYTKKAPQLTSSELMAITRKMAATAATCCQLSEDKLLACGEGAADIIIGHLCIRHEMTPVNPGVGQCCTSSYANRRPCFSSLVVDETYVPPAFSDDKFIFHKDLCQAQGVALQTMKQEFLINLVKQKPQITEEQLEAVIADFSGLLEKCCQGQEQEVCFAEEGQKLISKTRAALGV

Molecular target: alpha-fetoprotein (AFP) (Homo sapiens) (UniProt P02771)
Test: thermofluorimetric analysis (EvaGreen melting curves)
Conditions: 20 mM HEPES-Na, 120 mM NaCl, 4 mM KCl, 2 mM MgCl2, 1 mM CaCl2, pH 7.35 (aptamer diluent), 30 min at room temperature, then melt 4-80 C with EvaGreen, AFP stock 1.45 nM, recombinant protein, label: EvaGreen dye (non-covalent), single-stranded DNA

## ACCGACCGTGCTGGACTCTGTCGAAAGGATACTGAGTATTGAGGGGCGTCAGGTGGAAGAGTATGAGCGAGCGTTGCG [AP-L3-4]
1.25-80 nM and 1-5 nM aptamer, HEPES buffer with Na+, K+, Mg2+, Ca2+, bound peak weaker than AP273
  binding result: binds more weakly

## GTGACGCTCCTAACGCTGACTCAGGTGCAGTTCTCGACTCGGTCTTGATGTGGGTCCTGTCCGTCCGAACCAATC [AP273]
HEPES buffer 4 (highest ionic strength, lowest Tm), 4 nM aptamer, 1.45 nM AFP
  binding result: binds more weakly
HEPES buffer 9, less favorable than buffer 6
  binding result: binds more weakly
